Laboratory results from PubChem BioAssay AID1347075 (National Center for Advancing Translational Sciences (NCATS), 2019).
Hit rate of the full screen: of about 400,000 compounds, about 5,500 (1.4%) were called active. The inconclusive results got no clear call from the source; some entries with a clear call stand among them for comparison. Calls come from the whole dose curve; as a rule, active = well fitted cell-killing curve with a large enough effect; inconclusive = small, poorly fitted or top-dose-only effect, or effect the other way; inactive = flat fitted curve, though single readings scatter. A potency beside an inconclusive call is a rough fit, not a confirmed value.

Assay: qHTS assay for MDR1-selective chemotherapeutics: Primary screen using the parental adenocarcinoma cell KB-3-1; note: nearly all actives have a fitted effect of over 60% in size
Conditions: KB-3-1 viability, CellTiter-Glo ATP luminescence, 72 h; activity change, negative = cytotoxic: at 46.1 µM (top of the series)
Summary of the method: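 Viability of parental KB-3-1 cells, measured by CellTiter-Glo luminescence, followed a 72 h incubation at 37 °C with pinned compounds in phenol-red-free DMEM containing 10% FBS.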
% is set by controls: 0 for no effect and ±100 for the full control effect; potency is the fitted concentration of half-maximal effect.

Structure (SMILES)	Potency	activity change, negative = cytotoxic
CN(Cc1ccccc1)S(=O)(=O)c1ccc(NC(=S)NC(=O)C2CCCC2)cc1	active: 6.51 µM	
COc1ccccc1N1CCN(CC(=O)NCc2ccc(Cl)cc2)CC1		inactive: -6.8%
CCCn1c(CCc2ccccc2)n[nH]c1=S		inactive: 8.65%
CCCCCCOc1ccc(C(=O)NCCCn2ccnc2)cc1	inconclusive: 23.1 µM [cytotoxic, single point]	
O=[N+]([O-])c1cc(C(F)(F)F)ccc1N1CCN(S(=O)(=O)c2ccc3ccccc3c2)CC1	active: 18.4 µM	
O=C(N/N=C\c1c(O)ccc2ccccc12)c1ccc(Cn2cccn2)o1	active: 16.4 µM	
O=C(Nc1ccc(Cl)cc1)C1CCCN(c2ncnc3c2nc2n3CCCCC2)C1 (stereo not drawn)	inconclusive: 18.4 µM [cytotoxic, single point]	
CCN(CC)c1nc2c3c(nc4c(c3c1C#N)CC(=O)N4c1ccc(Cl)cc1)NC(C)=N2	inconclusive: 29.1 µM [cytotoxic, single point]	
O=C(NCCCN1CCN(c2cccc(Cl)c2)CC1)C1CCC(=O)N1Cc1ccccc1Cl (stereo not drawn)	inconclusive: 18.4 µM [cytotoxic, single point]	
Cn1c2ccccc2c2ncn(CCCN3CCOCC3)c(=O)c21		inactive: 13.1%
C=CCn1c(=S)[nH]c2ccc(Br)cc2c1=O	inconclusive: 8.2 µM [cytotoxic, partial curve, poor fit]	
COCCCNC(=S)N/N=C/c1ccccc1O	inconclusive: 25.9 µM [cytotoxic, single point]	
COc1ccc(OC)c(C(c2nnnn2C(C)(C)C)N2CCc3ccccc3C2)c1 (stereo not drawn)	active: 23.1 µM	
CCCn1nc(C(=O)N2CC(=O)Nc3ccccc32)c2ccccc2c1=O	active: 8.2 µM	
COc1cccc(C(C(=O)NC(C)(C)C)N(Cc2ccc(C)cc2)C(=O)CCC(=O)Nc2cc(C)on2)c1OC (stereo not drawn)	inconclusive: 29.1 µM [cytotoxic, single point]	
O=C(CCc1nc(-c2cccs2)no1)Nc1ccccc1[N+](=O)[O-]		inactive: 4.76%
CCOC(=O)N1CCc2[nH]c3ccc(C)cc3c2C1	inconclusive: 20.6 µM [cytotoxic, single point]	
CCCC#Cc1ccc2c(c1)O[C@@H](CN(C)Cc1ccc3c(c1)OCO3)[C@H](C)CN([C@@H](C)CO)S2(=O)=O	active: 20.6 µM	
CCc1ccc(NC(=O)Nc2ccc3c(c2)N(C)C(=O)CS3)cc1		inactive: -2.08%
COc1ccc(-c2cc3nc4n(c(=O)c3s2)CCCCC4)cc1	inconclusive: 0.206 µM [rising, full curve, poor fit]	
CCOC(=O)c1cnc2c(ccc3ccccc32)c1Nc1ccccc1OCC		inactive: 8.58%
Cc1ccc2[nH]c(=O)c(CN(Cc3ccco3)C(=O)c3ccncc3)cc2c1	active: 11.6 µM	
Cc1cccc(NC(=S)N(Cc2ccco2)C(C)c2cccs2)c1 (stereo not drawn)	inconclusive: 10.3 µM [cytotoxic, partial curve, poor fit]	
CC(NC(=O)Nc1ccc(Cl)cc1)c1ccc2c(c1)OCO2 (stereo not drawn)	inconclusive: 13 µM [cytotoxic, single point]	
CCOC(=O)c1c(C)[nH]c(C(=O)N/N=C/c2ccc(OC)c(OC)c2)c1C	inconclusive: 2.91 µM [cytotoxic, partial curve, poor fit]	

Structure (SMILES)	Potency	activity change, negative = cytotoxic
CCOc1ccccc1NC(=O)c1c(NC(=O)COc2ccccc2)sc2c1CCCCC2	active: 4.61 µM	
NC(=O)CCCn1c(C(=O)c2ccc(Cl)cc2)c2ccc([N+](=O)[O-])cc2[n+]1[O-]	inconclusive: 29.1 µM [cytotoxic, single point]	
Cc1ccc(-n2nc(C)c(NS(=O)(=O)c3ccccc3)c2C)cc1C	inconclusive: 29.1 µM [cytotoxic, single point]	
CC(C)(C)c1ccc(S(=O)(=O)NC(=O)C2(C)CCN2C(=O)Cc2cccs2)cc1 (stereo not drawn)		inactive: 0%
CCCNC(=O)C1CCN(S(=O)(=O)c2ccc(-c3nn[nH]n3)cc2)CC1		inactive: -3.04%
CCOC(=O)[C@H]1[C@H]2COc3ccccc3[C@@H]2N2C(=O)[C@@H](C)NC(=O)[C@@]12C	inconclusive: 29.1 µM [rising, single point]	
CCOc1ccc(CCNC(=O)CCCc2cc(-c3ccc(OCC)cc3)on2)cc1		inactive: 1.54%
Oc1ccc(-c2csc(-c3cccnc3)n2)c(O)c1	active: 5.8 µM	
Cc1nonc1NC(=O)CSc1nc(CCC2CCCC2)nc2ccccc12		inactive: 11.5%
CC(C)(CNC(=S)NCCc1ccccc1)CNC(=S)NCCc1ccccc1	inconclusive: 20.6 µM [cytotoxic, single point]	
c1ccc(C[n+]2cccc3c4ccccc4ccc32)cc1	inconclusive: 3.66 µM [cytotoxic, partial curve, poor fit]	
OC(c1cc(C(F)(F)F)nc2c(C(F)(F)F)cccc12)C1CCCCN1 (stereo not drawn)	inconclusive: 29.1 µM [cytotoxic, single point]	
CCOC(=O)c1ccc(S(=O)(=O)N2CCN(c3nc(-c4ccccc4)nc4ccccc34)CC2)cc1	inconclusive: 29.1 µM [rising, single point]	
Cc1ccc(NC(=O)Nc2nnc(Cc3ccc(F)cc3)s2)cc1	inconclusive: 25.9 µM [cytotoxic, single point]	
Cc1ccc2nc(/C(C#N)=C/c3cccc(Br)c3)[nH]c2c1		inactive: -27.8%
Cc1cc(NC(=O)CCCN2C(=O)/C(=C/c3ccccc3Cl)SC2=S)no1	inconclusive: 29.1 µM [cytotoxic, single point]	
N#Cc1ccc(CSc2nnc(-c3ccncc3)n2CCc2ccccc2)cc1	inconclusive: 18.4 µM [cytotoxic, single point]	
O=C(Cc1ccc(Cl)cc1)Nc1ccc(N2CCN(C(=O)c3ccco3)CC2)c(Cl)c1	inconclusive: 29.1 µM [cytotoxic, single point]	
Cc1ccc(NC(=O)C2CCCN(c3ncnc4c3nc3n4CCCCC3)C2)cc1F (stereo not drawn)	inconclusive: 16.4 µM [cytotoxic, single point]	
COc1cc(NS(=O)(=O)c2ccc(NC(=O)C(C)Oc3ccc(Cl)cc3Cl)cc2)nc(OC)n1 (stereo not drawn)		inactive: -3.15%
Cc1ccsc1CN(C)C(=O)CN1C(=O)NC2(CCCc3ccccc32)C1=O (stereo not drawn)		inactive: -1.56%
CN(CCOc1ccc(Cl)cc1)C(=O)c1cccc(S(=O)(=O)N2CCN(Cc3ccccc3)CC2)c1	inconclusive: 18.4 µM [cytotoxic, single point]	
CCC12CN3CC(C)(CN(C1)C3c1ccc(O)cc1O)C2=O (stereo not drawn)		inactive: 0.393%
Cc1cc(C)cc(Oc2coc3c(CN4CCN(C)CC4)c(O)ccc3c2=O)c1	inconclusive: 32.6 µM [cytotoxic, single point]	
Cc1cc(=O)n2[nH]c(SCc3c(F)cccc3Cl)nc2n1		inactive: -7.04%

Structure (SMILES)	Potency	activity change, negative = cytotoxic
O=c1c2cn[nH]c2nc(SCc2ccc3c(c2)OCCO3)n1-c1ccccc1	inconclusive: 23.1 µM [cytotoxic, single point]	
O=C(COC(=O)c1cc(S(=O)(=O)N2CCCC2)ccc1O)Nc1ccc(F)cc1F		inactive: -0.245%
COCCNC(=O)C1CCN(S(=O)(=O)c2c(C)noc2/C=C/c2cccs2)CC1		inactive: 26.1%
Cc1cc(C=CC#N)cc(C)c1Nc1nc(Nc2ccc3scnc3c2)c2[nH]cnc2n1	inconclusive: 29.1 µM [cytotoxic, partial curve, poor fit]	
Cc1cc(-c2ccc(C)c(S(=O)(=O)N3CCCC(C)C3)c2)on1 (stereo not drawn)	inconclusive: 18.4 µM [cytotoxic, single point]	
O=c1c2ccccc2nc(-c2ccccc2)n1CCN1CCOCC1		inactive: 5.7%
COc1ccc(/C=C/c2nc3ccccc3n2C)cc1	active: 5.17 µM	
COc1ccc(C(=O)Nc2ccccc2C(=O)NC(C(=O)NCc2ccco2)C(C)C)cc1 (stereo not drawn)	inconclusive: 29.1 µM [cytotoxic, single point]	
CCc1noc(-c2ccc(NC(C)c3ccccc3)c([N+](=O)[O-])c2)n1 (stereo not drawn)		inactive: 1.94%
CC(=O)c1cccc(NC(=O)CCS(=O)(=O)c2cc3c(cc2C)NC(=O)CO3)c1	inconclusive: 29.1 µM [rising, single point]	
Brc1cccc[n+]1Cc1ccccc1C[n+]1ccccc1Br		inactive: 24.3%
Cc1ccc(CNC(=O)C2c3ccccc3C(=O)N(C)C2c2c[nH]c3ccccc23)o1 (stereo not drawn)		inactive: 14.8%
CC(C)C[C@@H]1CN(CCCC[C@H]2CNC(=O)C(=O)N2CCC2CCCCC2)C(=O)C(=O)N1CCC1CCCCC1	inconclusive: 29.1 µM [cytotoxic, single point]	
CCC(CC)NC(=O)CN1CCN(S(=O)(=O)c2ccc(Br)s2)CC1		inactive: 13.6%
CC1CCCN(CCOCCOc2ccc(Cl)cc2Br)C1 (stereo not drawn)	inconclusive: 20.6 µM [cytotoxic, partial curve, poor fit]	
CN1CCN(C(=O)C2CCN(S(=O)(=O)c3ccc4c(c3)oc(=O)n4C)CC2)CC1		inactive: -10.1%
COC(/C(=N/O)c1ccc(Cl)cc1)c1ccccc1 (stereo not drawn)	inconclusive: 29.1 µM [cytotoxic, single point]	
CSc1ccccc1NC(=S)NC1CCCCC1		inactive: -1.32%
CCn1cnc2c(cnn2-c2ccccc2)c1=O	inconclusive: 32.6 µM [cytotoxic, single point]	
COc1ccc(Nc2nc(NC(C)C)nc3ccsc23)cc1OC	inconclusive: 18.4 µM [cytotoxic, single point]	
O=C(CSc1nnc(COc2ccc(Cl)cc2)o1)Nc1ccccc1		inactive: 12.5%
Cc1cc(Cl)ccc1OCC(=O)N1C(C)CCCC1C (stereo not drawn)	inconclusive: 16.4 µM [cytotoxic, partial curve]	
C=CCNS(=O)(=O)NC(=O)C1=C(N2CCCC2)COC1=O	inconclusive: 18.4 µM [rising, partial curve, poor fit]	

Some of the entries so far, comma-delimited:
Structure (SMILES),Potency,"activity change, negative = cytotoxic"
COCCNC(=O)C1CCN(S(=O)(=O)c2c(C)noc2/C=C/c2cccs2)CC1,,inactive: 26.1%
Cc1cc(C=CC#N)cc(C)c1Nc1nc(Nc2ccc3scnc3c2)c2[nH]cnc2n1,"inconclusive: 29.1 µM [cytotoxic, partial curve, poor fit]",
Cc1cc(-c2ccc(C)c(S(=O)(=O)N3CCCC(C)C3)c2)on1 (stereo not drawn),"inconclusive: 18.4 µM [cytotoxic, single point]",
O=c1c2ccccc2nc(-c2ccccc2)n1CCN1CCOCC1,,inactive: 5.7%
COc1ccc(/C=C/c2nc3ccccc3n2C)cc1,active: 5.17 µM,
COc1ccc(C(=O)Nc2ccccc2C(=O)NC(C(=O)NCc2ccco2)C(C)C)cc1 (stereo not drawn),"inconclusive: 29.1 µM [cytotoxic, single point]",
CCc1noc(-c2ccc(NC(C)c3ccccc3)c([N+](=O)[O-])c2)n1 (stereo not drawn),,inactive: 1.94%
CC(=O)c1cccc(NC(=O)CCS(=O)(=O)c2cc3c(cc2C)NC(=O)CO3)c1,"inconclusive: 29.1 µM [rising, single point]",
Brc1cccc[n+]1Cc1ccccc1C[n+]1ccccc1Br,,inactive: 24.3%
Cc1ccc(CNC(=O)C2c3ccccc3C(=O)N(C)C2c2c[nH]c3ccccc23)o1 (stereo not drawn),,inactive: 14.8%
CC(C)C[C@@H]1CN(CCCC[C@H]2CNC(=O)C(=O)N2CCC2CCCCC2)C(=O)C(=O)N1CCC1CCCCC1,"inconclusive: 29.1 µM [cytotoxic, single point]",
CCC(CC)NC(=O)CN1CCN(S(=O)(=O)c2ccc(Br)s2)CC1,,inactive: 13.6%
CC1CCCN(CCOCCOc2ccc(Cl)cc2Br)C1 (stereo not drawn),"inconclusive: 20.6 µM [cytotoxic, partial curve, poor fit]",
CN1CCN(C(=O)C2CCN(S(=O)(=O)c3ccc4c(c3)oc(=O)n4C)CC2)CC1,,inactive: -10.1%
COC(/C(=N/O)c1ccc(Cl)cc1)c1ccccc1 (stereo not drawn),"inconclusive: 29.1 µM [cytotoxic, single point]",
CSc1ccccc1NC(=S)NC1CCCCC1,,inactive: -1.32%
CCn1cnc2c(cnn2-c2ccccc2)c1=O,"inconclusive: 32.6 µM [cytotoxic, single point]",
COc1ccc(Nc2nc(NC(C)C)nc3ccsc23)cc1OC,"inconclusive: 18.4 µM [cytotoxic, single point]",
O=C(CSc1nnc(COc2ccc(Cl)cc2)o1)Nc1ccccc1,,inactive: 12.5%
Cc1cc(Cl)ccc1OCC(=O)N1C(C)CCCC1C (stereo not drawn),"inconclusive: 16.4 µM [cytotoxic, partial curve]",
C=CCNS(=O)(=O)NC(=O)C1=C(N2CCCC2)COC1=O,"inconclusive: 18.4 µM [rising, partial curve, poor fit]",
